# Laboratory results reported in the supplement of paper PMC12819154, “High-throughput peptide-centric local stability assay extends protein–ligand identification to membrane proteins, tissues and bacteria” (Nature Structural & Molecular Biology, 2025).
# Sequences of proteins named here, by UniProt entry; tags and fusion partners are left off. A change or cut given only in a name is not applied to a line headed by its entry.
# UniProt Q9CXK8: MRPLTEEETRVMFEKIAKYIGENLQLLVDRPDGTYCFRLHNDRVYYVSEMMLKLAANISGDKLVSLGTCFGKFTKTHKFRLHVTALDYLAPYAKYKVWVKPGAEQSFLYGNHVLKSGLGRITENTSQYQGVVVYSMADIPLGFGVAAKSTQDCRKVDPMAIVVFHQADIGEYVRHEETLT
# UniProt Q9D0E3: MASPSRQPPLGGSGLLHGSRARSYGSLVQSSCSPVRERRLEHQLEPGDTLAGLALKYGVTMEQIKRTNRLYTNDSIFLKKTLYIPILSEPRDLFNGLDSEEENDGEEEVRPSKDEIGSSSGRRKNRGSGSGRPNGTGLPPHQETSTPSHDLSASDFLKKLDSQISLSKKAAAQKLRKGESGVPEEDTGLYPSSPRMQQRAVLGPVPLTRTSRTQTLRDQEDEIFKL
# UniProt Q9D0U1: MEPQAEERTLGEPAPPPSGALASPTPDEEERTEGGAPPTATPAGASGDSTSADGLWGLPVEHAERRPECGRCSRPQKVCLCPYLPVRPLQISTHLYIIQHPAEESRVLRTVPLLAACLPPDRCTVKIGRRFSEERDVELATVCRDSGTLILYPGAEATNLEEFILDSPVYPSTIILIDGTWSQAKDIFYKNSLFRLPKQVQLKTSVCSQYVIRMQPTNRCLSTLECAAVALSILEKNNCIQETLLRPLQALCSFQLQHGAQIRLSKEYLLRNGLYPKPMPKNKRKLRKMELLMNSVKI
# UniProt Q9CXU0: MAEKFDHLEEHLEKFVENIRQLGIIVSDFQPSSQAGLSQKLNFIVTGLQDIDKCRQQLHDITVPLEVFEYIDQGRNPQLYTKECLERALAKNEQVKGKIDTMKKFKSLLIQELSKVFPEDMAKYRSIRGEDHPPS
# UniProt Q9CWE0: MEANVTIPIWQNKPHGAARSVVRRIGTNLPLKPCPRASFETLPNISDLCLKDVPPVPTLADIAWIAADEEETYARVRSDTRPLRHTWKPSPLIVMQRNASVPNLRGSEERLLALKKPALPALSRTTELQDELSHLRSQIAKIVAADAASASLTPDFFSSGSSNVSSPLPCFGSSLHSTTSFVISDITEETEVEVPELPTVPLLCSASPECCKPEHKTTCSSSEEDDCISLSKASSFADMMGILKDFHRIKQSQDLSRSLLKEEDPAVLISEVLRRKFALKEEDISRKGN
# UniProt Q9D0G0, whole entry: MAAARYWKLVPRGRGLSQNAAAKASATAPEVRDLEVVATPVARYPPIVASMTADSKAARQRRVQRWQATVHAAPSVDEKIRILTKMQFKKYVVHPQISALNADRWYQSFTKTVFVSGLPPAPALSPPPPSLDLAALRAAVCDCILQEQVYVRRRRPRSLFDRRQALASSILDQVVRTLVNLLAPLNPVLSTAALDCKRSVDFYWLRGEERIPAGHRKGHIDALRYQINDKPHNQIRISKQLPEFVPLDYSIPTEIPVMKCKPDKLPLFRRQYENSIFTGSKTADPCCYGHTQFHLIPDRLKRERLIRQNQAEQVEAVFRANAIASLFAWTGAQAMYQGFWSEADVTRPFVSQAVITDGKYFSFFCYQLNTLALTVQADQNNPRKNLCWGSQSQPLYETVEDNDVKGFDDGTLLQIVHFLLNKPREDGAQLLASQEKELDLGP
# UniProt Q9CWP6: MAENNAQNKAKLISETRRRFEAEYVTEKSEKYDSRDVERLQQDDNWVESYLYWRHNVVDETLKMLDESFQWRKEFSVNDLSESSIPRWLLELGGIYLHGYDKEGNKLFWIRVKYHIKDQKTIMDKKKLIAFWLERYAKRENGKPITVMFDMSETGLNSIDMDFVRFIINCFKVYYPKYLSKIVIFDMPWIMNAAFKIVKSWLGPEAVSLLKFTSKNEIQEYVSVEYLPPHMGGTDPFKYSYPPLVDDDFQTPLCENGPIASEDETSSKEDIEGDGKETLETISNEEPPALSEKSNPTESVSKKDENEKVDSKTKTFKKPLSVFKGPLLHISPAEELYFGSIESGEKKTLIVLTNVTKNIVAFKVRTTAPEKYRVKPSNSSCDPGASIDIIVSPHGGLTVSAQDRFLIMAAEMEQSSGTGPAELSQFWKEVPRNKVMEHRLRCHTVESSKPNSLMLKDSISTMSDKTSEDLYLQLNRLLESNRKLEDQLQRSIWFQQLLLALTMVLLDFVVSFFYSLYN
# UniProt Q9D0F3: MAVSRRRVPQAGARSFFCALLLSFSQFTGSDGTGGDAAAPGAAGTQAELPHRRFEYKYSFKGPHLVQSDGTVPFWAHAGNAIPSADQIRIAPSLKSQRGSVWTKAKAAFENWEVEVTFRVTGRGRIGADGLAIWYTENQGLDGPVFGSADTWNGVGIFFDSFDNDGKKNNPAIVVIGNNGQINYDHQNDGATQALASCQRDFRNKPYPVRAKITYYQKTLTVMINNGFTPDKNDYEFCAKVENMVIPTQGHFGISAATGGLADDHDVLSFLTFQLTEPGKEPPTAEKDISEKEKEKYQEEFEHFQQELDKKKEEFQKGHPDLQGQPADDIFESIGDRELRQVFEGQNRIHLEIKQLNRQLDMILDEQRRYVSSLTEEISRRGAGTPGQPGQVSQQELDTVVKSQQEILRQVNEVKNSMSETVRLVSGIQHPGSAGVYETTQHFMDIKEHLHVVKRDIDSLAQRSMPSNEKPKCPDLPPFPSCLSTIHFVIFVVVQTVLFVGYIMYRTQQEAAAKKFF
# UniProt Q9CWM4, whole entry: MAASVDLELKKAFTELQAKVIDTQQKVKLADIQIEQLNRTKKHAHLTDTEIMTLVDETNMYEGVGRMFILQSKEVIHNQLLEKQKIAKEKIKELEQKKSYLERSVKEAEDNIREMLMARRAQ
# UniProt Q9CWZ7: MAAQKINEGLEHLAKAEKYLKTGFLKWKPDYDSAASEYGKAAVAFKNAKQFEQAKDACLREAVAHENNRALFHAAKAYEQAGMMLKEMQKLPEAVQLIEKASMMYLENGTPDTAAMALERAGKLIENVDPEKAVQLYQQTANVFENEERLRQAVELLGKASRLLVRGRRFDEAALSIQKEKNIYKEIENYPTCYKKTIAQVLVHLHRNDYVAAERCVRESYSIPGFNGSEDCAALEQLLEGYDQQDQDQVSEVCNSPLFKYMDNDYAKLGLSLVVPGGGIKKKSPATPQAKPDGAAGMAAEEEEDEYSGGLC
# UniProt Q9CXW3, whole entry: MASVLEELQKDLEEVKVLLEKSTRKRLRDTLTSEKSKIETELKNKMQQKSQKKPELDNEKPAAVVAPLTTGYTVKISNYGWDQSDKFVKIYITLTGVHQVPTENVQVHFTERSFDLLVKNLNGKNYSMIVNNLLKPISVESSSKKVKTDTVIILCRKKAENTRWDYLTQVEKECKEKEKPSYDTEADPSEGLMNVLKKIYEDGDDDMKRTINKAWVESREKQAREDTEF
# The list shows a part of the results. Most entries show no effect beyond the scatter of the controls.
# Compound: CN[C@@H]1C[C@H]2O[C@@](C)([C@@H]1OC)n1c3ccccc3c3c4c(c5c6ccccc6n2c5c31)C(=O)NC4 [staurosporine]
# Assay: log2 fold change of tryptic peptide abundance, ligand vs vehicle (limited proteolysis) (log2 ratio); higher = more trypsin-susceptible (destabilized)
# Conditions: ligand concentration: 20 uM; sample: mouse liver crude lysate; replicate design: treated separately
row,Target,log2 fold change
1,"UniProt Q9CXK8 (peptide sequence: VWVKPGAEQSFLYGNHVLK, peptide start residue: 97)",0.238
2,"UniProt Q9D0E3 (peptide sequence: YGVTMEQIKR, peptide start residue: 57)",0.32
3,"UniProt Q9D0U1 (peptide sequence: TSVCSQYVIR, peptide start residue: 204)",-0.334
4,"UniProt Q9CXU0 (peptide sequence: LNFIVTGLQDIDKCR, peptide start residue: 41)",-0.326
5,"UniProt Q9CWE0 (peptide sequence: IGTNLPLKPCPR, peptide start residue: 25)",0.0829
6,"UniProt Q9D0G0 (peptide sequence: DLEVVATPVAR, peptide start residue: 33)",0.202
7,"UniProt Q9CWP6 (peptide sequence: CHTVESSKPNSLMLK, peptide start residue: 442)",-0.501
8,"UniProt Q9D0F3 (peptide sequence: RYVSSLTEEISR, peptide start residue: 369)",-0.461
9,"UniProt Q9CWM4 (peptide sequence: IKELEQK, peptide start residue: 91)",-0.532
10,"UniProt Q9CWZ7 (peptide sequence: TIAQVLVHLHRNDYVAAER, peptide start residue: 197)",0.551
11,"UniProt Q9CXW3 (peptide sequence: TDTVIILCR, peptide start residue: 148)",-0.314
